The test has as its system α2-AMPK. The following applies: read-out: EC50 for AMPK activation; hypothalamic slices, 30 min, different concentrations.

SMILES strings stand for the structures.

A word on the EC50: it is the concentration at which the effect is half-maximal. As to `CN1CCN(C2=Nc3cc(Cl)ccc3Nc3ccccc32)CC1` [Clozapine], the EC50 was around 10 nM.

(Values after patent US8148095B2, “Methods for predicting psychotropic drugs which elicit weight gain” (The Johns Hopkins University, priority 2006, dated 2012).)
